Laboratory results: PubChem BioAssay AID504793 (Drosophila RNAi Screening Center, 2011)
Purpose: 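Whole-genome screen for parts of the DNA damage checkpoint at G2/M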 (primary screen). Cell system: Drosophila S2R+ cells. Knock-down reagent: long dsRNA against Drosophila genes, about 0.25 µg dsRNA per well. Timing: 4 days of dsRNA, then 4 hours of drug before read-out. Treatment: doxorubicin 0.5 µM for 4 hours to cause double-strand breaks, in cells also given a low, harmless dose of dsRNA against nbs to sensitise the assay. Detection: 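Per-well count of mitotic cells stained for phospho-histone H3 after doxorubicin exposure, used as mitotic index; counts are raw and not normalised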. Scale: mitotic cells: higher = more cells in mitosis, weaker G2 arrest. Active means: 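Genes are called active only when high mitotic counts were reproduced with independent dsRNAs and mitosis was checked for delay without damage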. Calls: active = confirmed in follow-up tests; inactive = not confirmed.
The deposit covers about 23,000 reagents; shown is a random part of those with a known target gene and a result. In the full data, 62 (0.27%) were called active. 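Calls come from follow-up tests whose scores are not deposited, so confirmed genes may have low counts here; counts are not normalised per plate.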 Raw values are not corrected between plates. A plus sign joins genes that one reagent is predicted to hit.

gene knocked down | dsRNA | mitotic cells, replicate 1 | call
CG1468 (GeneID 31920) | DRSC17946 | 7 | inactive
CG1468 (GeneID 31920) | DRSC25538 | 8 | inactive
CG10588 (GeneID 40316) | DRSC11628 | 6 | inactive
CG7514 (GeneID 38571) | DRSC08597 | 5 | inactive
CG7514 (GeneID 38571) | DRSC25670 | 3 | inactive
Cdc2rk (GeneID 36051) | DRSC07590 | 9 | inactive
Cdc2rk (GeneID 36051) | DRSC29758 | 7 | inactive
wrm1 (GeneID 38810) | DRSC11007 | 6 | inactive
wrm1 (GeneID 38810) | DRSC24006 | 4 | inactive
Ctu2 (GeneID 35234) | DRSC02024 | 2 | inactive
Ctu2 (GeneID 35234) | DRSC29317 | 5 | inactive
CG30265 (GeneID 37622) | DRSC21592 | 10 | inactive
Lip1 (GeneID 43973) | DRSC03364 | 4 | inactive
RhoGAP93B (GeneID 42496) | DRSC15488 | 9 | inactive
CG6937 (GeneID 42662) | DRSC16140 | 3 | inactive
CG6937 (GeneID 42662) | DRSC23708 | 5 | inactive
Ak3 (GeneID 41318) | DRSC16075 | 5 | inactive
Ak3 (GeneID 41318) | DRSC27968 | 4 | inactive
CG15767 (GeneID 31508) | DRSC18073 | 11 | inactive
CG15767 (GeneID 31508) | DRSC29131 | 8 | inactive
CG1582 (GeneID 32021) | DRSC19732 | 5 | inactive
CG5181 (GeneID 34018) | DRSC02825 | 5 | inactive
CG18540 (GeneID 37097) | DRSC06767 | 7 | inactive
CG18540 (GeneID 37097) | DRSC26991 | 4 | inactive
Odc1 (GeneID 35766) | DRSC07482 | 9 | inactive
Odc1 (GeneID 35766) | DRSC29610 | 5 | inactive
CG14130 (GeneID 39335) | DRSC10134 | 3 | inactive
Vha36-3 (GeneID 31235) | DRSC18615 | 10 | inactive
Vha36-3 (GeneID 31235) | DRSC28636 | 3 | inactive
CR30374 (GeneID 10178922) | DRSC05080 | 8 | inactive
CG9184 (GeneID 38152) | DRSC08636 | 16 | inactive
CG9184 (GeneID 38152) | DRSC22184 | 6 | inactive
CG9184 (GeneID 38152) | DRSC23765 | 9 | inactive
CR33317 (GeneID 8674083) | DRSC02653 | 8 | inactive
Mtpbeta (GeneID 37784) | DRSC04663 | 10 | inactive
CG12522 (GeneID 39248) | DRSC09088 | 9 | inactive
CG12522 (GeneID 39248) | DRSC25372 | 7 | inactive
MtnD (GeneID 326270) | DRSC22733 | 7 | inactive
Rpt6R (GeneID 43635) | DRSC15431 | 8 | inactive
Cortactin (GeneID 42491) | DRSC16612 | 5 | inactive
Cortactin (GeneID 42491) | DRSC28012 | 7 | inactive
kmr (GeneID 5740131) | DRSC14827 | 2 | inactive
kmr (GeneID 5740131) | DRSC14828 | 6 | inactive
kmr (GeneID 5740131) | DRSC16472 | 7 | inactive
kmr (GeneID 5740131) | DRSC25867 | 3 | inactive
kmr (GeneID 5740131) | DRSC28945 | 6 | inactive
Mst57Db (GeneID 43122) | DRSC21551 | 6 | inactive
CG9698 (GeneID 43629) | DRSC16539 | 7 | inactive
CG7453 (GeneID 32903) | DRSC20046 | 6 | inactive
CG7453 (GeneID 32903) | DRSC24580 | 10 | inactive
primo-2 + primo-1 | DRSC16511 | 5 | inactive
primo-2 + primo-1 | DRSC27823 | 4 | inactive
ppk7 (GeneID 33886) | DRSC03236 | 9 | inactive
CG31848 (GeneID 318980) | DRSC01309 | 8 | inactive
CG44014 (GeneID 41893) | DRSC14995 | 1 | inactive
CG44014 (GeneID 41893) | DRSC28897 | 5 | inactive
Polr2F (GeneID 48312) | DRSC12366 | 17 | active
Polr2F (GeneID 48312) | DRSC28784 | 12 | inactive
CG14118 (GeneID 39465) | DRSC10122 | 6 | inactive
CG12093 (GeneID 38343) | DRSC08252 | 5 | inactive
smg (GeneID 39034) | DRSC11397 | 3 | inactive
smg (GeneID 39034) | DRSC28033 | 9 | inactive

Next part (5 carried over from the part before).
gene knocked down | dsRNA | mitotic cells, replicate 1 | call
Polr2F (GeneID 48312) | DRSC28784 | 12 | inactive
CG14118 (GeneID 39465) | DRSC10122 | 6 | inactive
CG12093 (GeneID 38343) | DRSC08252 | 5 | inactive
smg (GeneID 39034) | DRSC11397 | 3 | inactive
smg (GeneID 39034) | DRSC28033 | 9 | inactive
NPFR (GeneID 40754) | DRSC12173 | 14 | inactive
CG8405 (GeneID 36772) | DRSC05599 | 10 | inactive
CG8405 (GeneID 36772) | DRSC07166 | 9 | inactive
Xpd (GeneID 37414) | DRSC04666 | 3 | inactive
Xpd (GeneID 37414) | DRSC27757 | 9 | inactive
Uch-L5R (GeneID 32173) | DRSC19825 | 8 | inactive
CG18268 + CG3014 | DRSC15319 | 2 | inactive
CG13408 (GeneID 42597) | DRSC13534 | 23 | inactive
CG13408 (GeneID 42597) | DRSC14584 | 7 | inactive
cact (GeneID 34969) | DRSC03501 | 9 | inactive
cact (GeneID 34969) | DRSC28422 | 4 | inactive
CG5391 (GeneID 42611) | DRSC15790 | 12 | inactive
mthl4 (GeneID 36960) | DRSC06998 | 10 | inactive
CG10311 (GeneID 41984) | DRSC14228 | 5 | inactive
Rint1 (GeneID 38807) | DRSC11010 | 7 | inactive
Rint1 (GeneID 38807) | DRSC27960 | 8 | inactive
CG2614 (GeneID 35326) | DRSC02711 | 4 | inactive
Rhp (GeneID 32531) | DRSC20279 | 14 | inactive
CG12684 (GeneID 31390) | DRSC17875 | 10 | inactive
Cyp6a23 (GeneID 36661) | DRSC07383 | 5 | inactive
Cyp6a23 (GeneID 36661) | DRSC29473 | 4 | inactive
CG8630 (GeneID 41629) | DRSC16441 | 5 | inactive
CG8630 (GeneID 41629) | DRSC24081 | 5 | inactive
cpa (GeneID 37387) | DRSC04080 | 5 | inactive
AhcyL1 (GeneID 38342) | DRSC08647 | 10 | inactive
AhcyL1 (GeneID 38342) | DRSC25573 | 4 | inactive
mRpL52 (GeneID 35711) | DRSC06585 | 10 | inactive
CG33191 (GeneID 251270) | DRSC27362 | 6 | inactive
Oseg1 (GeneID 38957) | DRSC10776 | 4 | inactive
CG2854 (GeneID 31219) | DRSC18595 | 6 | inactive
CG13000 (GeneID 32685) | DRSC19519 | 16 | inactive
CG13000 (GeneID 32685) | DRSC25279 | 4 | inactive
CG15332 (GeneID 31714) | DRSC18015 | 7 | inactive
CG15332 (GeneID 31714) | DRSC25660 | 10 | inactive
CG3982 (GeneID 39084) | DRSC23139 | 21 | inactive
CG3982 (GeneID 39084) | DRSC26894 | 4 | inactive
Ipo9 (GeneID 41367) | DRSC16813 | 11 | inactive
CG10565 (GeneID 40332) | DRSC11620 | 2 | inactive
Hmt4-20 (GeneID 31015) | DRSC18482 | 4 | inactive
Hmt4-20 (GeneID 31015) | DRSC23921 | 7 | inactive
CG6696 (GeneID 32856) | DRSC20004 | 5 | inactive
CG6696 (GeneID 32856) | DRSC25648 | 4 | inactive
CG8230 (GeneID 35897) | DRSC05931 | 7 | inactive
Rad51D (GeneID 35937) | DRSC06840 | 9 | inactive
vnd (GeneID 31003) | DRSC18849 | 9 | inactive
vnd (GeneID 31003) | DRSC22487 | 7 | inactive
vnd (GeneID 31003) | DRSC25390 | 5 | inactive
CG32195 (GeneID 317907) | DRSC09533 | 13 | inactive
